These results are taken from publication PMC7144902.

A weaker result is weaker than the reference pair of the same experiment. For part of these data: Construct, isoform or probe ends are uncertain for at least one entry. For part of these data: At least one verdict was read from the data and is not stated in words by the source.

Common to all, as to assay: EMSA
Background: A gel shift assay detects complexes by their altered migration in electrophoresis.

Data set [1] deals with MeCP2[1-205] (Homo sapiens) (UniProt P51608). Particulars: EMSA: 10 mM Tris-HCl pH 7.5, 150 mM KCl (250 mM for MeCP2[1-486]), 0.1 mg/ml BSA, 5% glycerol, 0.1 mM EDTA, 1 ug poly(dA-dT), 1 ng probe, 20 ul, 30 min on ice, recombinant protein, residues 1-205, protein details: C-terminal His, label: 32P.
Data set [2] has as its target MeCP2[1-486] (Homo sapiens) (UniProt P51608). The settings on record: 250 mM KCl, EMSA: 10 mM Tris-HCl pH 7.5, 150 mM KCl (250 mM for MeCP2[1-486]), 0.1 mg/ml BSA, 5% glycerol, 0.1 mM EDTA, 1 ug poly(dA-dT), 1 ng probe, 20 ul, 30 min on ice, recombinant protein, residues 1-486, protein details: C-terminal His, label: 32P.
Data set [3] has as its target MeCP2[77-167] (Homo sapiens) (UniProt P51608). Particulars: EMSA: 10 mM Tris-HCl pH 7.5, 150 mM KCl (250 mM for MeCP2[1-486]), 0.1 mg/ml BSA, 5% glycerol, 0.1 mM EDTA, 1 ug poly(dA-dT), 1 ng probe, 20 ul, 30 min on ice, recombinant protein, residues 77-167, protein details: C-terminal His, label: 32P.

Consider “AAGCATGCAATGCCCTGGAAGTGGAATTCTTCTAATAAAAGATGTATCATTTTAAATGC (double strand)”, for which the binding result in data set [1] (greatly reduced) is listed as “binds more weakly”.

In the case of “AAGCATGCAATGCCCTGGAACGGAATTCTTCTAATAAAAGATGTATCATTTTAAATGC (double strand) [CG (parent)]”, in data set [2] (high nonspecific background), the binding result was “binds more weakly”.

On to “AAGCATGCAATGCCCTGGAACTGTAATTCTTCTAATAAAAGATGTATCATTTTAAATGC (double strand)”, for which the binding result in data set [1] (greatly reduced) is “binds more weakly”.

Consider “AAGCATGCAATGCCCTGGAAGTGAAATTCTTCTAATAAAAGATGTATCATTTTAAATGC (double strand)”, for which, in data set [1] (greatly reduced), the binding result is given as “binds more weakly”.

For “AAGCATGCAATGCCCTGGAAGTCTAATTCTTCTAATAAAAGATGTATCATTTTAAATGC (double strand)”, in data set [1] (greatly reduced), the binding result was “binds more weakly”.

On to “AAGCATGCAATGCCCTGGAAGTGCAATTCTTCTAATAAAAGATGTATCATTTTAAATGC (double strand)”, for which, in data set [1] (greatly reduced), the binding result was “binds more weakly”.

On to “AAGCATGCAATGCCCTGGAAGGTGTAATTCTTCTAATAAAAGATGTATCATTTTAAATGC (double strand)”, for which the binding result in data set [2] (indistinguishable from CG background, abstract: failed to bind) was “binds more weakly”; in data set [3] (reduced to near background) it was “binds more weakly”.

As to “AAGCATGCAATGCCCTGGAAGTATAATTCTTCTAATAAAAGATGTATCATTTTAAATGC (double strand)”, the binding result in data set [1] (greatly reduced) is given as “binds more weakly”.

As for “AAGCATGCAATGCCCTGGAACGGAATTCTTCTAATAAAAGATGTATCATTTTAAATGC (double strand) [mCG]”, the binding result in data set [3] (5mC at strand 1 position 21, reverse strand the appropriate methylated oligo (position not given)) is “binds”.

“AAGCATGCAATGCCCTGGAAGTTTAATTCTTCTAATAAAAGATGTATCATTTTAAATGC (double strand)”: the binding result in data set [1] (greatly reduced) is reported as “binds more weakly”.

For the sequence “AAGCATGCAATGCCCTGGAAATGTAATTCTTCTAATAAAAGATGTATCATTTTAAATGC (double strand)”, the binding result in data set [1] (greatly reduced) is “binds more weakly”.

In the case of “AAGCATGCAATGCCCTGGAATTGTAATTCTTCTAATAAAAGATGTATCATTTTAAATGC (double strand)”, the binding result in data set [1] (greatly reduced) is “binds more weakly”.

For “AAGCATGCAATGCCCTGGAAACACAATTCTTCTAATAAAAGATGTATCATTTTAAATGC (double strand) [GT2-inv bot]”, the binding result in data set [1] (diminished) is on record as “binds more weakly”.

As to “AAGCATGCAATGCCCTGGAAGTGTAACGCTTCTCGTACGAGATGTATCATTTTAAATGC (double strand) [GT2-A/T mut]”, the binding result in data set [1] (greatly reduced) is recorded as “binds more weakly”.
